Measurements reported in PubChem BioAssay AID540275 (National Center for Advancing Translational Sciences (NCATS), 2011).
The whole screen tested about 320,000 compounds, of which about 620 (0.19%) were called active. The inconclusive results got no clear call from the source; some entries with a clear call stand among them for comparison. Cut-off read from the data, not from the text of the source: active = activation above about 80%; inconclusive = between about 30% and that limit; inactive = weaker than that.

Amino acid sequences for entries named in this document (tags omitted).
UniProt Q8NER1, whole entry, looked up: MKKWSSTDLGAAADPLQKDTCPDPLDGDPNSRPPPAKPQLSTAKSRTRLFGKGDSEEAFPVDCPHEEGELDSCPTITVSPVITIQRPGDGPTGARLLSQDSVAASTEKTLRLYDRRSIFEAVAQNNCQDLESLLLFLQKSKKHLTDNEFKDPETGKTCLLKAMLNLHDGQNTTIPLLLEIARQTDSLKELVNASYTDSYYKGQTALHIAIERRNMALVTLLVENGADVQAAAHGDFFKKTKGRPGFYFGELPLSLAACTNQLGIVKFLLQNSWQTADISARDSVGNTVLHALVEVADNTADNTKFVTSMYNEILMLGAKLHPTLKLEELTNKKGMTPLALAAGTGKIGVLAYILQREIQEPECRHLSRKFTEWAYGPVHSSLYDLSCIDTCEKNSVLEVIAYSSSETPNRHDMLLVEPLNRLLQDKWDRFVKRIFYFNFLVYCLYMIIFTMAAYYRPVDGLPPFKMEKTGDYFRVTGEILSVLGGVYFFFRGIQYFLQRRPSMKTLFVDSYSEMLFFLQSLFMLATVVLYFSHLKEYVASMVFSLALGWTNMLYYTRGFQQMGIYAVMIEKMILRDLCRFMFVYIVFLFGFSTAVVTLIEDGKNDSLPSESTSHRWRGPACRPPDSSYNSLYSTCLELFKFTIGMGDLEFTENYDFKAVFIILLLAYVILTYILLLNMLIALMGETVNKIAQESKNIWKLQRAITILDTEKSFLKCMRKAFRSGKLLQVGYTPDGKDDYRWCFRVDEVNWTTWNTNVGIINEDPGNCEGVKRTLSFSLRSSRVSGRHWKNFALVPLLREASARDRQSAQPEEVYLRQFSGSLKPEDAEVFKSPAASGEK

These compounds were tested against Transient receptor potential cation channel subfamily V member 1 (Homo sapiens) (UniProt Q8NER1) (assay: HTS Assay for Compounds that Act as Agonists of the Vanilloid Receptor 1). Settings: TRPV1-expressing cells, Fluo-8 calcium influx, agonist mode; at 8.33 µM, stronger effect = higher value.
How it was run: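 Fluo-8 calcium influx in TRPV1-expressing cells, kinetic read (ex 480/em 520 nm). Compound added and read 3 min for agonist activity, followed by capsaicin at EC20 final and 2 min further read for enhancement.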
Note: 0% is about no effect.

Row | Structure (SMILES) | activation
1 | COc1ccc2[nH]cc(CCNC(=O)Nc3ccccc3)c2c1 | inconclusive: 46.1%
2 | CCN1C(=O)[C@H]2[C@@H](c3ccc(-c4ccc5c(c4)OCO5)c(OC)c3)N[C@@](Cc3ccccc3)(C(=O)OC)[C@H]2C1=O | inactive: -4.2%
3 | CC(C)c1ccc(NC(=O)NCc2cccnc2)cc1 | inconclusive: 63.9%
4 | COc1ccc(C(O)(c2ccccc2OC)C(CN2CCOCC2)c2ccccc2)cc1 (centres undefined) | inconclusive: 44.4%
5 | COc1cccc(NC(=O)NCCCN2CCN(c3ccc(F)cc3)CC2)c1 | inactive: 6%
6 | CC(OC(=O)c1ccc(C(C)(C)C)cc1)C(=O)NC1CCCCC1C (centres undefined) | inconclusive: 49.8%
7 | Oc1ccc2ccccc2c1CNc1ccccn1 | inconclusive: 36.5%
8 | O=C(c1ccc(-c2nc3ccccc3s2)s1)N1CCOCC1 | inconclusive: 37.5%
9 | CS/C(=C\[N+](=O)[O-])Nc1ccc(OC(F)(F)F)cc1 | inactive: -0.384%
10 | NS(=O)(=O)c1ccc(NC(=O)C(Sc2ccccc2)c2ccccc2)cc1 (centres undefined) | inconclusive: 50.8%
11 | O=C(NCc1cnc2ccccn12)C1CCC(=O)N(Cc2ccccc2F)C1 (centres undefined) | inactive: -5.65%
12 | O=C(NC1CC1)c1cc2cc(Br)ccc2s1 | inconclusive: 65%
13 | OCCN1CCN(C(=S)Nc2ccc(SC(F)F)cc2)CC1 | inconclusive: 35.5%
14 | OC1CCCN(C(=S)Nc2ccc(SC(F)F)cc2)C1 (centres undefined) | inconclusive: 30.2%
15 | CN(C)c1cc[n+](CC(=O)c2ccc(-c3ccccc3)cc2)cc1 | inactive: -3.08%
16 | CCOc1nc(-c2ccccc2)ccc1-c1noc(-c2cccs2)n1 | inconclusive: 34.5%
17 | O=C(NC1CCCCC1)N1CCN(c2ccccc2)CC1 | inconclusive: 46.5%
18 | COc1ccc(-n2nc(C(=O)NCC(=O)N3CCN(Cc4ccc5c(c4)OCO5)CC3)c3ccccc3c2=O)cc1OC | inconclusive: 60.7%
19 | Cc1ccc2cc(C)c3nnc(SCc4ccc(C(=O)O)cc4)n3c2c1C | inactive: 0.904%
20 | COc1ccccc1/C=C/C(=O)OC(C)CN1CCOCC1 (centres undefined) | inactive: 4.55%

Row | Structure (SMILES) | activation
21 | CCCCOc1ccc2c(C)cc(=O)oc2c1OCCCC | inconclusive: 30.5%
22 | O=[N+]([O-])c1cc(S(=O)(=O)Nc2ccccc2)ccc1-n1nnc2ccccc21 | inactive: 4.53%
23 | CC(=O)N1c2ccc(S(=O)(=O)NCCC(=O)N3CCC(C)CC3)cc2CC1C (centres undefined) | inactive: 0.889%
24 | O=C(Cc1ccc(Cl)cc1)Nc1ccc(NC(=O)c2ccccc2)cc1 | inactive: 3.33%
25 | CN(C)c1cccc(NC(=O)Cc2ccc(F)cc2)c1 | inconclusive: 52.5%
26 | CCc1ccc(/C=N/NC(=O)c2c[nH]c3ccccc23)s1 | active: 84.6%
27 | CCOC(=O)N1CCN(C(=S)NC(=O)c2cncc(Br)c2)CC1 | inactive: -3.35%
28 | O=C(NCC1CCN(Cc2ccccc2Cl)CC1)Nc1ccccc1F | inconclusive: 44.6%
29 | CCOc1ccc(NC(=S)c2ccncc2)cc1 | inconclusive: 47.7%
30 | O=C(O)c1ccc2c(c1)C(=O)N(c1cc([N+](=O)[O-])ccn1)C2=O | inactive: -5.53%
31 | NNC(=O)c1cccn(Cc2cccc(C(F)(F)F)c2)c1=O | inconclusive: 32%
32 | Cc1ccc(NC(=O)c2ccccc2)cc1 | inconclusive: 66.1%
33 | N=c1c2ccccc2nnn1-c1cccc(C(F)(F)F)c1 | inconclusive: 37.6%
34 | CCOc1ccc(N(CC(=O)NCCSc2ccccn2)S(=O)(=O)c2ccc(Cl)cc2)cc1 | inconclusive: 31.2%
35 | CCOC(=O)c1c(-c2ccc(OC)cc2)cn2ccccc12 | inconclusive: 31.8%
36 | COc1ccc(C(=O)c2ccc(N3CCN(C4CC(=O)NC4=O)CC3)cc2)cc1F (centres undefined) | inconclusive: 40.6%
37 | CCOc1ccc(NC(=O)N2CCC(c3nc4ccccc4[nH]3)CC2)cc1 | inconclusive: 49.3%
38 | CCCc1cc(=O)oc2c3c(c4c(c12)OC(C)(C)C=C4)OC(C)C(C)C3O (centres undefined) | inconclusive: 51.8%
39 | CC(=O)N(Cc1ccco1)c1nc(C(=O)Nc2ccc(Cl)cc2)c(C)s1 | inconclusive: 48.5%
40 | O=C(c1cccc(C(F)(F)F)c1)N1CCOc2ccccc21 | inconclusive: 30.8%

Filtered by structure: the compounds so far with an NH in an aromatic ring
Row | Structure (SMILES) | activation
1 | COc1ccc2[nH]cc(CCNC(=O)Nc3ccccc3)c2c1 | inconclusive: 46.1%
26 | CCc1ccc(/C=N/NC(=O)c2c[nH]c3ccccc23)s1 | active: 84.6%
37 | CCOc1ccc(NC(=O)N2CCC(c3nc4ccccc4[nH]3)CC2)cc1 | inconclusive: 49.3%

Remaining list, next part:

Row | Structure (SMILES) | activation
41 | Cc1ccc(C(=O)CSc2nsc(C)c2C#N)cc1 | inconclusive: 58.4%
42 | CCOc1ccc(C(c2c(NC(=O)c3ccccc3)sc(C)c2C)N2CCN(C)CC2)cc1 (centres undefined) | inconclusive: 32.5%
43 | C=CCn1c(SCC(=O)Nc2ccc(OC)cc2)nc2ccccc2c1=O | inconclusive: 31.4%
44 | CCOc1ccc2nc(NC(=O)CSc3nc4ccccc4c(=O)n3Cc3ccco3)sc2c1 | inactive: 4.48%
45 | O=C(/C=C/c1ccc([N+](=O)[O-])s1)N1CCCCC1 | inconclusive: 40.8%
46 | CCCOC(=O)COC(=O)c1ccccc1NC(=O)c1ccccc1 | inconclusive: 34.7%
47 | CCCCCCCC(=O)N/N=C/c1ccc([N+](=O)[O-])o1 | inconclusive: 30.4%
48 | Cc1cc(Br)ccc1SCC(=O)OCC(=O)NC(C)c1ccccc1 (centres undefined) | inconclusive: 31.5%
49 | S=C(NCCN1CCOCC1)Nc1ccc(Cl)c(Cl)c1 | inconclusive: 42%
50 | COc1cc(C(=O)Nc2ccccc2N2CCCCC2)cc(OC)c1OC | inconclusive: 41.5%
51 | COc1ccc(S(=O)(=O)N2CCC(O)(c3ccc(Cl)cc3)CC2)cc1 | inconclusive: 34.3%
52 | CCC(C)(C)c1ccc(OCCCC[n+]2cccc(C)c2)c(C(C)(C)CC)c1 | inactive: 6.95%
53 | COc1ccc(/C=N/NC(=O)CNC(=O)c2ccc3c(c2)OCCO3)c(C(=O)O)c1OC | inactive: 1.48%
54 | O=C1CC2(CCCCC2)Oc2ccc(OCC(=O)N3CCOCC3)cc21 | inconclusive: 61.5%
55 | CN(Cc1ccccc1F)C(=O)c1ccc(Oc2ccccc2)cc1 | inactive: 24.9%
56 | O=C(CCSCc1cccc(Cl)c1)NC1CCCC1 | inconclusive: 47.7%
57 | CCOCCn1ccc2c(OCC(=O)Nc3ccc(OC)c(OC)c3)cccc2c1=O | inactive: 3.53%
58 | NNC(=O)c1n[nH]c(=O)c2ccccc12 | inconclusive: 55.5%
59 | Cc1ccc(OCc2cc(C(=O)NC(C)Cc3cccnc3)no2)cc1C (centres undefined) | inactive: 2.71%
